{"source": "paper PMC8450094", "target": "T1, SNM1B R300A (Homo sapiens) (UniProt Q9H816)", "T1 sequence (looked up)": "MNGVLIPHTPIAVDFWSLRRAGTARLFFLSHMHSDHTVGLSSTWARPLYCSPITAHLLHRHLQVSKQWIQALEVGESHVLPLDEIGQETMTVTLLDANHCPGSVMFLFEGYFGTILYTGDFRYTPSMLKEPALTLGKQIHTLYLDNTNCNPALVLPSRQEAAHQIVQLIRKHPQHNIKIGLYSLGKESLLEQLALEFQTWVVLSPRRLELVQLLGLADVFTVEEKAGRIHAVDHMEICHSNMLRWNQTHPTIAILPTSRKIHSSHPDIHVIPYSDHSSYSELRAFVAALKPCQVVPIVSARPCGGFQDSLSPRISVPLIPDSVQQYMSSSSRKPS", "assay": "fluorescence polarisation", "details": "increased KDapp; 5' phosphate on strand 1; 5' OH on strand 2; FP: 20 mM HEPES pH 7.5, 50 mM KCl, 0.5 mM TCEP, room temperature, 5 min, DNA 25 nM (Methods) or 50 nM (legends; 10 nM in Suppl. Fig. 14C); recombinant protein; residues 1-335; protein details: C-terminal His10-FLAG, TEV cleavage stated; label: 3' FITC on strand 1", "note": "For at least one entry, the source does not settle the construct or the ends of the probe. Weaker means in comparison with the reference protein, sequence or condition of that experiment. Tags and fusion partners may be left off the protein sequences shown.", "data": [{"sequence": "ATAAATATTTTTTATTAATAATAGATCACCTTTCTTTCTCTTCTCCCCTT / ATTATTAATAAAAAATATTTAT [3' overhang DNA (oligo 20 / oligo 4)]", "values": [{"measurement": "binding result", "value": "binds more weakly"}]}]}
